Results reported in PMC5327418.
Results are given in words; binding and its absence hold for the method and conditions named. Binding seen in cells or lysates may run through a third protein. A yes stands for co-enrichment or nearness to the bait. Other partners may have been found.

By UniProt entry, the sequences of proteins in these tests, tags left out.
UniProt P32569: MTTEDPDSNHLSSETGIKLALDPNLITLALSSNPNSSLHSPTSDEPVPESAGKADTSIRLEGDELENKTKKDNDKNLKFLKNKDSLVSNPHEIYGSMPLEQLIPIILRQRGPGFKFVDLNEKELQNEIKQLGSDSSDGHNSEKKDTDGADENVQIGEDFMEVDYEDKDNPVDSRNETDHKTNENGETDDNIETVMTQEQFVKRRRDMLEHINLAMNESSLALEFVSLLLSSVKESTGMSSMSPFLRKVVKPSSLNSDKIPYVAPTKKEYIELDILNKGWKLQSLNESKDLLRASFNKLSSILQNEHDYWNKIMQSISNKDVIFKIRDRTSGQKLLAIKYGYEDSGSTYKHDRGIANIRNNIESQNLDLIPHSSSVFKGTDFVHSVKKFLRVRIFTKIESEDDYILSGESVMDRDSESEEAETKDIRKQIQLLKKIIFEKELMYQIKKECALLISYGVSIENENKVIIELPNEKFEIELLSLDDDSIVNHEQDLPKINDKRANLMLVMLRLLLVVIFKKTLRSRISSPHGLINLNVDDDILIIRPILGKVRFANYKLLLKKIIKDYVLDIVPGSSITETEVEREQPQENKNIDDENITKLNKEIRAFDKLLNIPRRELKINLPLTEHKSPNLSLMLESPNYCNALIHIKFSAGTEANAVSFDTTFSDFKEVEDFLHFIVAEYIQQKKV

B1: Spt6 (protein, UniProt P23615 1-1451)
chain: MEETGDSKLVPRDEEEIVNDNDETKAPSEEEEGEDVFDSSEEDEDIDEDEDEARKVQEGFIVNDDDENEDPGTSISKKRRKHKRREREEDDRLSEDDLDLLMENAGVERTKASSSSGKFKRLKRVGDEGNAAESESDNVAASRQDSTSKLEDFFSEDEEEEESGLRNGRNNEYGRDEEDHENRNRTADKGGILDELDDFIEDDEFSDEDDETRQRRIQEKKLLREQSIKQPTQITGLSSDKIDEMYDIFGDGHDYDWALEIENEELENGNDNNEAEEEEIDEETGAIKSTKKKISLQDIYDLEDLKKNLMTEGDMKIRKTDIPERYQELRAGITDYGNMSSEDQELERNWIAEKISVDKNFDANYDLTEFKEAIGNAIKFITKENLEVPFIYAYRRNYISSREKDGFLLTEDDLWDIVSLDIEFHSLVNKKDYVQRFYAELHIDDPIVTEYFKNQNTASIAELNSLQDIYDYLEFKYANEINEMFINHTGKTGKKHLKNSSYEKFKASPLYQAVSDIGISAEDVGENISSQHQIHPPVDHPSSKPVEVIESILNANSGDLQVFTSNTKLAIDTVQKYYSLELSKNTKIREKVRSDFSKYYLADVVLTAKGKKEIQKGSLYEDIKYAINRTPMHFRRDPDVFLKMVEAESLNLLSVKLHMSSQAQYIEHLFQIALETTNTSDIAIEWNNFRKLAFNQAMDKIFQDISQEVKDNLTKNCQKLVAKTVRHKFMTKLDQAPFIPNVRDPKIPKILSLTCGQGRFGADAIIAVYVNRKGDFIRDYKIVDNPFDKTNPEKFEDTLDNIIQSCQPNAIGINGPNPKTQKFYKRLQEVLHKKQIVDSRGHTIPIIYVEDEVAIRYQNSERAAQEFPNKPPLVKYCIALARYMHSPLLEYANLTSEEVRSLSIHPHQNLLSSEQLSWALETAFVDIVNLVSVEVNKATDNNYYASALKYISGFGKRKAIDFLQSLQRLNEPLLARQQLITHNILHKTIFMNSAGFLYISWNEKRQKYEDLEHDQLDSTRIHPEDYHLATKVAADALEYDPDTIAEKEEQGTMSEFIELLREDPDRRAKLESLNLESYAEELEKNTGLRKLNNLNTIVLELLDGFEELRNDFHPLQGDEIFQSLTGESEKTFFKGSIIPVRVERFWHNDIICTTNSEVECVVNAQRHAGAQLRRPANEIYEIGKTYPAKVIYIDYANITAEVSLLDHDVKQQYVPISYSKDPSIWDLKQELEDAEEERKLMMAEARAKRTHRVINHPYYFPFNGRQAEDYLRSKERGEFVIRQSSRGDDHLVITWKLDKDLFQHIDIQELEKENPLALGKVLIVDNQKYNDLDQIIVEYLQNKVRLLNEMTSSEKFKSGTKKDVVKFIEDYSRVNPNKSVYYFSLNHDNPGWFYLMFKINANSKLYTWNVKLTNTGYFLVNYNYPSVIQLCNGFKTLLKSNSSKNRMNNYR
B2: Rtr1 (protein, UniProt P40084 1-226)
chain: MATIEDIKETALIPFQKHRQLSMHEAEVITLEIIGLLCDSECKDEKTLKYLGRFLTPDMYQDLVDERNLNKRCGYPLCGKSPERIRDPFSMNDTTKKFLLENNPYAYLSHYCSKFHFRCSQFYQVQLSDEALFARTGVHLFEDPEQDKHDIDFKVTLFEELLREKASEEDIKSLISGLKKLGLNPDSGTTEKDDTELEDDLSKWLAQIKIVENDNPSILGDFTRED
B3: Cbp2 (protein, UniProt P03874 1-630)
chain: MVNWQTLFMVSLRRQGSSSRYRYKFNMENITHQVFPRCKQAFKKTNLSYEYCDLEGVLYNISLTDLQKLLLRDINAPREHAFKIVRTDLTQKSSKKRIQHWERIAPMFDHPLSLYEKLFSEMDEDFKPSFEWQQLIRVRCKDDKLKLQRVIWPKSIFSNFCRGIGVKKSTYDRLLEQNNGEVPMFVNPANAKPLPLFQVSDEAMIGEFDGIGIFPYFVDKHREFFVTEVDKLKTKIASPLCTLNERKRIEKANAGRILANEEGKPFYLDANSATTRIAGGNVVTLKQLLERSVSHKTLWSKQSNKDRTCPGDILRATILSNDFSIRQLRAEFCKNFILYNIFTILQRNKKSIRSFSGNDNAPSFQFSWNVWDSYIWKQYQETESMKIPTDQASLINYKTKYDSFLHDLQTYSALVISEMKWNQFSIFQNDETTLSRFEHITLILQTVLTKSKMIRIFQPNLYKFMQDDLRPTLMELVGFTESINATIEPGFANEQSLQSANGLKKLANQLLYFEQEIYGEKFRVNRPIQLRPITLSANYKIVILDKKNAIPEIFQTLLKFMTQITTYFVKDLSEVELHGHMHCIDKKMLDKSKFMYLYEEKSNEEVKAASPQKEKIVDNIIGLLSNDEEH
B4: Dcp2 (protein, UniProt P53550 1-970)
chain: MSLPLRHALENVTSVDRILEDLLVRFIINCPNEDLSSVERELFHFEEASWFYTDFIKLMNPTLPSLKIKSFAQLIIKLCPLVWKWDIRVDEALQQFSKYKKSIPVRGAAIFNENLSKILLVQGTESDSWSFPRGKISKDENDIDCCIREVKEEIGFDLTDYIDDNQFIERNIQGKNYKIFLISGVSEVFNFKPQVRNEIDKIEWFDFKKISKTMYKSNIKYYLINSMMRPLSMWLRHQRQIKNEDQLKSYAEEQLKLLLGITKEEQIDPGRELLNMLHTAVQANSNNNAVSNGQVPSSQELQHLKEQSGEHNQQKDQQSSFSSQQQPSIFPSLSEPFANNKNVIPPTMPMANVFMSNPQLFATMNGQPFAPFPFMLPLTNNSNSANPIPTPVPPNFNAPPNPMAFGVPNMHNLSGPAVSQPFSLPPAPLPRDSGYSSSSPGQLLDILNSKKPDSNVQSSKKPKLKILQRGTDLNSIKQNNNDETAHSNSQALLDLLKKPTSSQKIHASKPDTSFLPNDSVSGIQDAEYEDFESSSDEEVETARDERNSLNVDIGVNVMPSEKDSRRSQKEKPRNDASKTNLNASAESNSVEWGPGKSSPSTQSKQNSSVGMQNKYRQEIHIGDSDAYEVFESSSDEEDGKKLEELEQTQDNSKLISQDILKENNFQDGEVPHRDMPTESNKSINETVGLSSTTNTVKKVPKVKILKRGETFASLANDKKAFDSSSNVSSSKDLLQMLRNPISSTVSSNQQSPKSQHLSGDEEIMMMLKRNSVSKPQNSEENASTSSINDANASELLGMLKQKEKDITAPKQPYNVDSYSQKNSAKGLLNILKKNDSTGYPRTEGGPSSEMSTSMKRNDATNNQELDKNSTELLNYLKPKPLNDGYENISNKDSSHELLNILHGNKNSSAFNNNVYATDGYSLASDNNENSSNKLLNMLQNRSSAINEPNFDVRSNGTSGSNELLSILHRK
B5: Edc3 (protein, UniProt P39998 1-551)
chain: MSQFVGFGVQVELKDGKLIQGKIAKATSKGLTLNDVQFGDGGKSQAFKVRASRLKDLKVLTVASQSGKRKQQRQQQQQNDYNQNRGEHIDWQDDDVSKIKQQEDFDFQRNLGMFNKKDVFAQLKQNDDILPENRLQGHNRKQTQLQQNNYQNDELVIPDAKKDSWNKISSRNEQSTHQSQPQQDAQDDLVLEDDEHEYDVDDIDDPKYLPITQSLNITHLIHSATNSPSINDKTKGTVINDKDQVLAKLGQMIISQSRSNSTSLPAANKQTTIRSKNTKQNIPMATPVQLLEMESITSEFFSINSAGLLENFAVNASFFLKQKLGGRARLRLQNSNPEPLVVILASDSNRSGAKALALGRHLCQTGHIRVITLFTCSQNELQDSMVKKQTDIYKKCGGKIVNSVSSLESAMETLNSPVEIVIDAMQGYDCTLSDLAGTSEVIESRIKSMISWCNKQRGSTKVWSLDIPNGFDAGSGMPDIFFSDRIEATGIICSGWPLIAINNLIANLPSLEDAVLIDIGIPQGAYSQRTSLRKFQNCDLFVTDGSLLLDL
B6: Rpa2 (protein, UniProt P22138 1-1203)
chain: MSKVIKPPGQARTADFRTLERESRFINPPKDKSAFPLLQEAVQPHIGSFNALTEGPDGGLLNLGVKDIGEKVIFDGKPLNSEDEISNSGYLGNKLSVSVEQVSIAKPMSNDGVSSAVERKVYPSESRQRLTSYRGKLLLKLKWSVNNGEENLFEVRDCGGLPVMLQSNRCHLNKMSPYELVQHKEESDEIGGYFIVNGIEKLIRMLIVQRRNHPMAIIRPSFANRGASYSHYGIQIRSVRPDQTSQTNVLHYLNDGQVTFRFSWRKNEYLVPVVMILKALCHTSDREIFDGIIGNDVKDSFLTDRLELLLRGFKKRYPHLQNRTQVLQYLGDKFRVVFQASPDQSDLEVGQEVLDRIVLVHLGKDGSQDKFRMLLFMIRKLYSLVAGECSPDNPDATQHQEVLLGGFLYGMILKEKIDEYLQNIIAQVRMDINRGMAINFKDKRYMSRVLMRVNENIGSKMQYFLSTGNLVSQSGLDLQQVSGYTVVAEKINFYRFISHFRMVHRGSFFAQLKTTTVRKLLPESWGFLCPVHTPDGSPCGLLNHFAHKCRISTQQSDVSRIPSILYSLGVAPASHTFAAGPSLCCVQIDGKIIGWVSHEQGKIIADTLRYWKVEGKTPGLPIDLEIGYVPPSTRGQYPGLYLFGGHSRMLRPVRYLPLDKEDIVGPFEQVYMNIAVTPQEIQNNVHTHVEFTPTNILSILANLTPFSDFNQSPRNMYQCQMGKQTMGTPGVALCHRSDNKLYRLQTGQTPIVKANLYDDYGMDNFPNGFNAVVAVISYTGYDMDDAMIINKSADERGFGYGTMYKTEKVDLALNRNRGDPITQHFGFGNDEWPKEWLEKLDEDGLPYIGTYVEEGDPICAYFDDTLNKTKIKTYHSSEPAYIEEVNLIGDESNKFQELQTVSIKYRIRRTPQIGDKFSSRHGQKGVCSRKWPTIDMPFSETGIQPDIIINPHAFPSRMTIGMFVESLAGKAGALHGIAQDSTPWIFNEDDTPADYFGEQLAKAGYNYHGNEPMYSGATGEELRADIYVGVVYYQRLRHMVNDKFQVRSTGPVNSLTMQPVKGRKRHGGIRVGEMERDALIGHGTSFLLQDRLLNSSDYTQASVCRECGSILTTQQSVPRIGSISTVCCRRCSMRFEDAKKLLTKSEDGEKIFIDDSQIWEDGQGNKFVGGNETTTVAIPFVLKYLDSELSAMGIRLRYNVEPK
B7: Rpa12 (protein, UniProt P32529 1-125)
chain: MSVVGSLIFCLDCGDLLENPNAVLGSNVECSQCKAIYPKSQFSNLKVVTTTADDAFPSSLRAKKSVVKTSLKKNELKDGATIKEKCPQCGNEEMNYHTLQLRSADEGATVFYTCTSCGYKFRTNN
B8: Rpa14 (protein, UniProt P50106 1-137)
chain: MMKGSRRTGNNTATTLNTPVVIHATQLPQHVSTDEVLQFLESFIDEKENIIDSTTMNTISGNAADADAAAVANTSLNIDTNLSSSISQLKRIQRDFKGLPPAQDFSAAPIQVSTTEKKETSIGVSATGGKKTTFADE
B9: Rpa34 (protein, UniProt P47006 1-233)
chain: MSKLSKDYVSDSDSDDEVISNEFSIPDGFKKCKHLKNFPLNGDNKKKAKQQQVWLIKFPSNVDISKLKSLPVDFESSTTMTIDKHDYKIMDDTDIESSLTQDNLSNMTLLVPSESKESLKIASTAKDNAPLQFDKVFSVSETAKIPAIDYSKVRVPRKDVPKVEGLKLEHFATGYDAEDFHVAEEVKENKKEPKKRSHHDDEEESSEKKKKKKEKREKREKKDKKDKKKKHRD
B10: Rpa43 (protein, UniProt P46669 1-326)
chain: MSQVKRANENRETARFIKKHKKQVTNPIDEKNGTSNCIVRVPIALYVSLAPMYLENPLQGVMKQHLNPLVMKYNNKVGGVVLGYEGLKILDADPLSKEDTSEKLIKITPDTPFGFTWCHVNLYVWQPQVGDVLEGYIFIQSASHIGLLIHDAFNASIKKNNIPVDWTFVHNDVEEDADVINTDENNGNNNNEDNKDSNGGSNSLGKFSFGNRSLGHWVDSNGEPIDGKLRFTVRNVHTTGRVVSVDGTLISDADEEGNGYNSSRSQAESLPIVSNKKIVFDDEVSIENKESHKELDLPEVKEDNGSEIVYEENTSESNDGESSDSD

Molecular target: Med17-HA (S. cerevisiae (endogenous in S288c)) (UniProt P32569)
Experiment: affinity purification with mass spectrometry; CoIP of Med17-HA on anti-HA magnetic beads from cryoground yeast lysate, 2 h at 4 °C; 20 mM HEPES pH 7.5, 300 mM KOAc, 10% glycerol, 0.01% NP-40, 6 mM MnSO4, 1 mM DTT, Cyanase nuclease; parallel control CoIP from 15N-labelled wild type cells, mixing after purification (MAP); GeLC-MS/MS, three biological replicates

Binder | binding
B1 | binds
B2 | binds
B3 | binds
B4 | binds
B5 | binds
B6 | binds
B7 | binds
B8 | binds
B9 | binds
B10 | binds
